Where a name gives a salt, the structure may show the parent alone. This is one part of the list. Single values are uncertain here, since repeats match poorly.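 A screen tested FDA-approved drugs combined with one-eighth-MIC colistin against a clinical mcr-1-positive, multidrug-resistant E. coli isolate, measuring OD600 at 24 h. Controls were untreated bacteria (growth) and broth alone (blank). An OD600 under 0.2 marked a combination as active.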
These molecules were tested on Escherichia coli 42 (mcr-1-positive clinical isolate) (assay: OD600 after 24 h growth with compound plus colistin (absorbance units (OD600)); higher = more bacterial growth (less inhibition)). Settings: first compound 25 µM; colistin concentration 0.5 ug/mL; incubation time 24 h; 37 °C.

OD600, inactive:
c1cnc2cc3c(cc2n1)[C@@H]1CNC[C@H]3C1 [Varenicline Tartrate] + CCC(C)CCCC(=O)N[C@@H](CCN)C(=O)N[C@H](C(=O)N[C@@H](CCN)C(=O)N[C@H]1CCNC(=O)[C@H]([C@@H](C)O)NC(=O)[C@H](CCN)NC(=O)[C@H](CCN)NC(=O)[C@H](CC(C)C)NC(=O)[C@@H](CC(C)C)NC(=O)[C@H](CCN)NC1=O)[C@@H](C)O [colistin] 0.879, CC(C)(C)NC[C@H](O)COc1nsnc1N1CCOCC1 [(S)-Timolol Maleate] + CCC(C)CCCC(=O)N[C@@H](CCN)C(=O)N[C@H](C(=O)N[C@@H](CCN)C(=O)N[C@H]1CCNC(=O)[C@H]([C@@H](C)O)NC(=O)[C@H](CCN)NC(=O)[C@H](CCN)NC(=O)[C@H](CC(C)C)NC(=O)[C@@H](CC(C)C)NC(=O)[C@H](CCN)NC1=O)[C@@H](C)O [colistin] 0.846, Nc1nc(O)c2ncn(CCC(CO)CO)c2n1 [Penciclovir] + CCC(C)CCCC(=O)N[C@@H](CCN)C(=O)N[C@H](C(=O)N[C@@H](CCN)C(=O)N[C@H]1CCNC(=O)[C@H]([C@@H](C)O)NC(=O)[C@H](CCN)NC(=O)[C@H](CCN)NC(=O)[C@H](CC(C)C)NC(=O)[C@@H](CC(C)C)NC(=O)[C@H](CCN)NC1=O)[C@@H](C)O [colistin] 0.968, CNC(=C[N+](=O)[O-])NCCSCc1csc(CN(C)C)n1 [Nizatidine] + CCC(C)CCCC(=O)N[C@@H](CCN)C(=O)N[C@H](C(=O)N[C@@H](CCN)C(=O)N[C@H]1CCNC(=O)[C@H]([C@@H](C)O)NC(=O)[C@H](CCN)NC(=O)[C@H](CCN)NC(=O)[C@H](CC(C)C)NC(=O)[C@@H](CC(C)C)NC(=O)[C@H](CCN)NC1=O)[C@@H](C)O [colistin] 0.874

— the supplement of paper PMC11546906
